From PubChem BioAssay AID1347426 (Functional Genomics Laboratory (NCATS/FGL), 2020)
In all, about 31,000 sequences went through this assay and about 1,400 (4.5%) were called active.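 How the source made its calls: active means median seed-adjusted z-score above 1 or below -1; inactive means the rest.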 Some of the results follow.

Test: Novel Modifiers of Survival Motor Neuron (SMN) Protein: Gene Identification via Genome-wide siRNA Screen;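 further: luminescence tracks full-length SMN protein made from the SMN2 reporter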
Conditions: HEK293T SMN2-luciferase reporter, siRNA knockdown, 72 h; actives lie on both sides
Outline: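 Steps: spot 1 pmol siRNA, add Lipofectamine RNAiMax in serum-free DMEM, seed HEK293T SMN2–luciferase reporter cells; incubate 72 h at 37 °C; add ONE-Glo; normalize luminescence to control siRNA, log10, MAD. Candidates: |MAD| > 1.0.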
With GACUAUGUAUCUUUACGAUTT against OVCH1 the median seed-adjusted z-score was inactive: 0.0211.
For CAAUGAUGGACAUACCAUUTT against CA8, the median seed-adjusted z-score was inactive: 0.172.
With AGAUGUCAGAAGUAUAUAUTT against WNT5A the median seed-adjusted z-score was inactive: 0.651.
For GAACCACAAUGUUAACAAUTT against CYBRD1, the median seed-adjusted z-score was inactive: 0.623.
For GGGAUUCUGCUGUAUAUGATT against GRID1, the median seed-adjusted z-score was inactive: 0.66.
In the case of GCCUCCAGGUGUACGUUAATT against KCNMB2, the median seed-adjusted z-score is reported as inactive: 0.
In the case of CAUCAGUGCUGAUAGUGAATT against GNMT, the median seed-adjusted z-score is reported as inactive: 0.0261.
With GCCUUUGAGUUCAUGCUGUTT against CCRK the median seed-adjusted z-score was inactive: -0.47.
For CCCUAAAGUUAAUCACCCATT against NUCB2, the median seed-adjusted z-score was inactive: 0.45.
For GACGAGCUCUUUAACAUCATT against DCLK3, the median seed-adjusted z-score was inactive: -0.0139.
With UGGUGACGCUGUUCAAAAATT against POMC the median seed-adjusted z-score was inactive: 0.374.
In the case of GGAUGAUGAUUACUGGUCUTT against GSN, the median seed-adjusted z-score is reported as inactive: -0.222.
For GGCAAUUACCUAUGUAAGATT against AGTR1, the median seed-adjusted z-score was inactive: 0.106.
For ACAUCCGCGGCGACAUGUATT against RASD2, the median seed-adjusted z-score was inactive: 0.0673.
In the case of CUGCAGAUCUUGUGACAGATT against IMPA2, the median seed-adjusted z-score is reported as inactive: 0.0513.
With CCCUGUUACUGCUGCCCUATT against BZRPL1 the median seed-adjusted z-score was inactive: 0.0787.
With GCGUCAUGAUGUUCACCUATT against ITGB5 the median seed-adjusted z-score was inactive: -0.00882.
With GACUCGCAGAAUAAACAUATT against ISOC2 the median seed-adjusted z-score was inactive: -0.599.
In the case of CAAAUAUCCCGUACGUGUATT against HTR3A, the median seed-adjusted z-score is reported as inactive: 0.37.
For GCAUAUCCGUCUGUCAGAATT against PRC1, the median seed-adjusted z-score was inactive: -0.0195.
In the case of GGUCUAUGAUAUCACUAGATT against RAB14, the median seed-adjusted z-score is reported as inactive: -0.0567.
With GGGAUAACCUGGAAAAGGATT against APOA1 the median seed-adjusted z-score was inactive: -0.239.
For GGACCAUCAUCCUACUGUATT against CCND3, the median seed-adjusted z-score was inactive: -0.965.
For AGCAGAUUGUUAAAAUGUATT against SAV1, the median seed-adjusted z-score was inactive: 0.766.
For GAGUGUACACCUUAAACAATT against HP, the median seed-adjusted z-score was inactive: 0.
For CCCAGGUGCUUAGAAACAATT against TCEB3B, the median seed-adjusted z-score was inactive: 0.0434.
For GGAUCAUCUAUGACCGGAATT against EIF4EBP1, the median seed-adjusted z-score was inactive: -0.161.
With CAGCUGGAUUGACAAGUUUTT against MFN2 the median seed-adjusted z-score was inactive: -0.0968.
In the case of GCCCAUUUCAUCAACCUGATT against PRDM15, the median seed-adjusted z-score is reported as inactive: 0.258.
For CAACCACAGCUGCAUGUAUTT against GABRB1, the median seed-adjusted z-score was inactive: 0.238.
In the case of GGAUCUCCUUCGAUUUAGATT against PRIM2, the median seed-adjusted z-score is reported as inactive: -0.0161.
In the case of GAGGUUGAUUUAUACCAAUTT against SAP30, the median seed-adjusted z-score is reported as inactive: -0.618.
With CUAGUGACAAUAAAGAUUATT against GRB7 the median seed-adjusted z-score was inactive: 0.439.
With UCUUCUAAAUACUUCCUAATT against GJC3 the median seed-adjusted z-score was inactive: -0.137.
For GCAGCAUCAAUGUCUGGAATT against SLC6A8, the median seed-adjusted z-score was inactive: -0.0673.
For GGUAAACGCAAAGCACUGATT against MAP2K4, the median seed-adjusted z-score was inactive: -0.366.
With GCAAGAGUUUGAUCGCUUUTT against RECK the median seed-adjusted z-score was inactive: -0.000321.
For GCAUCUUGGGUGUUGACAATT against NARS2, the median seed-adjusted z-score was inactive: 0.505.
In the case of CAUUGAGAAUAAUAACAGATT against PPP3CA, the median seed-adjusted z-score is reported as inactive: 0.74.
With GCGAGGAAGUGGGAAUUCATT against RGS6 the median seed-adjusted z-score was inactive: -0.904.
In the case of GUUCCAAGGUGGAUGCGAATT against ABCC1, the median seed-adjusted z-score is reported as inactive: 0.
For CCUUUACCUUUAGACGUAUTT against RBM45, the median seed-adjusted z-score was inactive: -0.234.
For GAUAUUCAUUUGUUCGGUUTT against TIA1, the median seed-adjusted z-score was inactive: -0.188.
With CGAGGACAUUGAUAACGAATT against CCNB2 the median seed-adjusted z-score was inactive: 0.0328.
For CAAUCUUCUUUGAUGUCAATT against GDE1, the median seed-adjusted z-score was inactive: -0.256.
With UGCUCUGCGUAGGACCCUATT against FFAR1 the median seed-adjusted z-score was inactive: 0.248.
In the case of CAUCCUGUAUAAGUACUAUTT against RNF216, the median seed-adjusted z-score is reported as inactive: -0.246.
In the case of CACGAAUCCUGGUUGAUCATT against ELAVL4, the median seed-adjusted z-score is reported as inactive: -0.0523.
With GCUCUUCGAGAGAACCUGUTT against TUBG1 the median seed-adjusted z-score was inactive: 0.618.
With CAAUAUGAAUGGUAUUGCATT against TEC the median seed-adjusted z-score was inactive: 0.258.
For CAUCCGCACUUUCAAGGGATT against LSM11, the median seed-adjusted z-score was inactive: -0.873.
In the case of GCCUCAAGCUCGAAUGUGATT against AES, the median seed-adjusted z-score is reported as inactive: -0.478.
In the case of CUUCUUCCGUGACUUCUCATT against COL18A1, the median seed-adjusted z-score is reported as inactive: -0.441.
With GCUGGUUAGGAACCGCUCATT against ZNF579 the median seed-adjusted z-score was inactive: -0.0604.
For GGAAGGAGUUUGUGAGCGATT against ARL10, the median seed-adjusted z-score was inactive: -0.455.
In the case of UGCAGGUCAUUAACAAUUATT against RNASE2, the median seed-adjusted z-score is reported as inactive: 0.283.
For GUAAAUCAAUGGUGGAUGATT against RAP2C, the median seed-adjusted z-score was inactive: 0.443.
With CUUGGAUGAUGGCAAGACATT against TCEB2 the median seed-adjusted z-score was active: 1.28.
With GGACGAGAUAUAACAUAUUTT against ACTR3 the median seed-adjusted z-score was inactive: -0.7.
For GGUGCGUGCUAGUGCAAUUTT against C1QL3, the median seed-adjusted z-score was inactive: -0.276.
With CGCUGCACGUCUACCAGUATT against KIF26A the median seed-adjusted z-score was inactive: -0.428.
In the case of CGUCGAAUGUUUAAAGUCUTT against ITFG1, the median seed-adjusted z-score is reported as inactive: -0.417.
For GCACUGUGAAGAUCGAGUUTT against MATN3, the median seed-adjusted z-score was inactive: 0.0972.
For GGAUCGAAGUUGUAAUCGUTT against DOCK7, the median seed-adjusted z-score was inactive: 0.23.
For GUAAUAGAGAGUAAUCGAATT against MYO9A, the median seed-adjusted z-score was inactive: -0.567.
For CGUCUACUCGGAGAGCAAATT against MC3R, the median seed-adjusted z-score was inactive: 0.424.
With GGAUAACUUCCUAUAUGAATT against GPR160 the median seed-adjusted z-score was inactive: -0.278.
For GGAGAACCACAAGAACAUUTT against ZNF423, the median seed-adjusted z-score was inactive: 0.0134.
With GUCAAAGAGUGACAACUUUTT against CALB2 the median seed-adjusted z-score was inactive: 0.
